{"sequences": {"note": "Sequences of proteins named here, by UniProt entry; tags and fusion partners are left off. Residues count along the entry.", "UniProt Q07954, residues 20-4544": "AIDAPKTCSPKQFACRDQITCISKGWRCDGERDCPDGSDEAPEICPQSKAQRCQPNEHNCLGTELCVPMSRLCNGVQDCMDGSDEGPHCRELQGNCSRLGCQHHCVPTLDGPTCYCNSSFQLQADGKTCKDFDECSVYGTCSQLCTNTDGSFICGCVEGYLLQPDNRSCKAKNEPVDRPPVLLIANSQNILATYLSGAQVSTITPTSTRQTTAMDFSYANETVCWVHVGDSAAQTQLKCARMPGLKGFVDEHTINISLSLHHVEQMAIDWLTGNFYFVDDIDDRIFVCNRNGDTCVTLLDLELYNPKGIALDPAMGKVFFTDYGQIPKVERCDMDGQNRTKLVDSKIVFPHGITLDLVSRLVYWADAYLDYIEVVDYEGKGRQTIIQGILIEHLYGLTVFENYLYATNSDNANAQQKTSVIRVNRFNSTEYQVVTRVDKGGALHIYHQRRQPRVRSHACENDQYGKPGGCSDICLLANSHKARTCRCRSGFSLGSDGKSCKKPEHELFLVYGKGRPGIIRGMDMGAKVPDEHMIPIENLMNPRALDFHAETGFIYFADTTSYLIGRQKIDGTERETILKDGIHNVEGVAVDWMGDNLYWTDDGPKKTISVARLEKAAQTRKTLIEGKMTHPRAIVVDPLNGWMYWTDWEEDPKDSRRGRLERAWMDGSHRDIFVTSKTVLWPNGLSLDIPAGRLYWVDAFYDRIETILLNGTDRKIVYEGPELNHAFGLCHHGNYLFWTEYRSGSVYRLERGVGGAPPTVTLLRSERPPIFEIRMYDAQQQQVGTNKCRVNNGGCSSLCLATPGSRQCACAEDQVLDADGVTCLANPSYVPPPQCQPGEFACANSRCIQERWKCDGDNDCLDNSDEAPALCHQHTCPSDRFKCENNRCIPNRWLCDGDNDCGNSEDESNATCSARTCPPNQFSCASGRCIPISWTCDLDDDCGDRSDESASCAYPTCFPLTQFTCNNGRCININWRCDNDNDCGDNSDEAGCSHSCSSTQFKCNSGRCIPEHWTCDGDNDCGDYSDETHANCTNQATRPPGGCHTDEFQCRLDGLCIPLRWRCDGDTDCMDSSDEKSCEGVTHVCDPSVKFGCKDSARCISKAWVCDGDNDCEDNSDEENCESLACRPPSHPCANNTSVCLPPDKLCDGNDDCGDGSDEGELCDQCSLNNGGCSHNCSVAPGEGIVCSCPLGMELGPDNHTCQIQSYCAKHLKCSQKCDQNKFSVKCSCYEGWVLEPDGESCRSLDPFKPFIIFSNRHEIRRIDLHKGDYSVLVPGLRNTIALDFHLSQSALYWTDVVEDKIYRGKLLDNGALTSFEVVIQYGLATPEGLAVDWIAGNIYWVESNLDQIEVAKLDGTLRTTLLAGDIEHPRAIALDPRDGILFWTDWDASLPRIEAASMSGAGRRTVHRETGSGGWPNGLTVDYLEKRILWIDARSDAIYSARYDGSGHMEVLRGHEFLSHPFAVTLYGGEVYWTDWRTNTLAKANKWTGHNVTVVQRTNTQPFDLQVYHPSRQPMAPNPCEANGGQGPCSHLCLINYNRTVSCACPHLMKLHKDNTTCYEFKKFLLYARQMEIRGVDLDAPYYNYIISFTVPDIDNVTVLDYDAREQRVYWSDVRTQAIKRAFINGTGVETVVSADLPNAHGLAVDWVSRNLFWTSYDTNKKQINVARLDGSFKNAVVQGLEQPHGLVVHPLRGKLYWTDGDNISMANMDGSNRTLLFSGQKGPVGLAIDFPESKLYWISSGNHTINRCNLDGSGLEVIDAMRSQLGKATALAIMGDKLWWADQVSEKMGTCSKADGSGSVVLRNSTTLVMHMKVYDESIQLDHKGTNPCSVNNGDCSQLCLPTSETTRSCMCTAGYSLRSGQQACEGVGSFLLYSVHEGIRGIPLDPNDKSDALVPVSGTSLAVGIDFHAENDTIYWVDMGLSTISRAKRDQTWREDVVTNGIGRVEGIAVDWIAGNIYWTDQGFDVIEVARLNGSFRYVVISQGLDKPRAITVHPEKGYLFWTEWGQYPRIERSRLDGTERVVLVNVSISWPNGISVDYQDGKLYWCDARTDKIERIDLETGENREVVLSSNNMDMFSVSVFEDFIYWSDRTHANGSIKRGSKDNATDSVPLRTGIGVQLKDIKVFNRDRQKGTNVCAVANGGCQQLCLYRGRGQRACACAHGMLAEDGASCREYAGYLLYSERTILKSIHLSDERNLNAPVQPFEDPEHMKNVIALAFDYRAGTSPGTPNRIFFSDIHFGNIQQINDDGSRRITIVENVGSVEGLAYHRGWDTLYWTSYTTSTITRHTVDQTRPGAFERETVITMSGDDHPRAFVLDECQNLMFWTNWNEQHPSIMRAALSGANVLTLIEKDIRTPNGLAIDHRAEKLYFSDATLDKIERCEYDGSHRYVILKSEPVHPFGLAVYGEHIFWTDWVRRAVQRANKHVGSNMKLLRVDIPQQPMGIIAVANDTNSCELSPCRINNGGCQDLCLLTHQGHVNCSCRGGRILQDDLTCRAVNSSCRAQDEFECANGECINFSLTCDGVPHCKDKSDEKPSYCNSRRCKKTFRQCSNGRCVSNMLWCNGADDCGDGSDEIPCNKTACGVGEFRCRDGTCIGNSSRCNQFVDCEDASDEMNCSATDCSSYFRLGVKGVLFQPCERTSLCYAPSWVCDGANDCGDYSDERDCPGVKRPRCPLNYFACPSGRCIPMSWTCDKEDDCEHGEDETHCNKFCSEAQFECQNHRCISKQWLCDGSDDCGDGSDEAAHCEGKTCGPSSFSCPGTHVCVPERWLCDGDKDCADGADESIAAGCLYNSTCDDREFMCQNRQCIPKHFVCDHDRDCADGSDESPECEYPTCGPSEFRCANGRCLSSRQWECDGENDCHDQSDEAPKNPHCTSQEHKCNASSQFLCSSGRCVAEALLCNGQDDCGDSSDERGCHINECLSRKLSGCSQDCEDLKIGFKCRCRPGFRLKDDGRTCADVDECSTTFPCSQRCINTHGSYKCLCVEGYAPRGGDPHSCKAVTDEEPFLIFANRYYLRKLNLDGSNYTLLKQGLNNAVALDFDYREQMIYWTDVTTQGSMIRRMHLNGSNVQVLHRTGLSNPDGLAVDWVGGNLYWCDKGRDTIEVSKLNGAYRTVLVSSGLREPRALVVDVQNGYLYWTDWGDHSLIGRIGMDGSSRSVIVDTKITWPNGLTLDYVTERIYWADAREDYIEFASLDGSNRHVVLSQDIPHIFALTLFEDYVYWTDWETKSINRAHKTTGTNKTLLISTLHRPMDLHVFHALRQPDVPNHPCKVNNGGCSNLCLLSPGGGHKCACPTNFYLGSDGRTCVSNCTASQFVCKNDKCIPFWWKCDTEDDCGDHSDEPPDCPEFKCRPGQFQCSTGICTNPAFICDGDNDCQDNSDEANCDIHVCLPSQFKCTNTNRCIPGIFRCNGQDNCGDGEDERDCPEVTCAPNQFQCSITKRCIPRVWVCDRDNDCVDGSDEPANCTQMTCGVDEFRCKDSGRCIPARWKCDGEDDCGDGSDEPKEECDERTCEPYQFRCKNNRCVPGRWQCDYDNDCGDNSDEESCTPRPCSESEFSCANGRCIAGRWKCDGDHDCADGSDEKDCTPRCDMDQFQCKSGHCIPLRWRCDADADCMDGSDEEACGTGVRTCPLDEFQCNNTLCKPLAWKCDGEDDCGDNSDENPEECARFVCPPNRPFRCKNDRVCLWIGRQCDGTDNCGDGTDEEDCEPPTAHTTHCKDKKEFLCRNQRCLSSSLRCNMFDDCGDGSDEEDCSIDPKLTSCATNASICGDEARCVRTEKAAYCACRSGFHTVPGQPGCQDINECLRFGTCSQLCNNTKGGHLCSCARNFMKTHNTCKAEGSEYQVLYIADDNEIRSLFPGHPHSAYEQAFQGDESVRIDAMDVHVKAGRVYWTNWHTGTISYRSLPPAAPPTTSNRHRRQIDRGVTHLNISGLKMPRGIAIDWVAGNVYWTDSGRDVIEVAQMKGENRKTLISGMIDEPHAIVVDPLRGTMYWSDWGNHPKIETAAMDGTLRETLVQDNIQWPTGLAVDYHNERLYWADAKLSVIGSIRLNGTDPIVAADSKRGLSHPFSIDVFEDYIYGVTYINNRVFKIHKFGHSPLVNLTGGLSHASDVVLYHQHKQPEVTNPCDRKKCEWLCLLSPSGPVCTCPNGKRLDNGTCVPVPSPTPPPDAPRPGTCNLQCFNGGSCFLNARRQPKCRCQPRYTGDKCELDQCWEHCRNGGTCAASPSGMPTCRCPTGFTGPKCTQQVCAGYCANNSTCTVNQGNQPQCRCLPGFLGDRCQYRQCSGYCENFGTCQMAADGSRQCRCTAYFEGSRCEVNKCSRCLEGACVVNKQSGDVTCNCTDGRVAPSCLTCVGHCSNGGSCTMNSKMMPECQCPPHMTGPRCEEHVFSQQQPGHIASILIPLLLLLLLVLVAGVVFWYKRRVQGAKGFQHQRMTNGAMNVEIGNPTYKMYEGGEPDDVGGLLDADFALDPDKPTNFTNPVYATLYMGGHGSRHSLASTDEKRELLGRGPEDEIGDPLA"}, "source": "patent US20030129186A1", "binders": {"B1": {"name": "recombinant human melanotransferrin (p97) (ligand, UniProt P08582 20-709, looked up)", "chain": "GMEVRWCATSDPEQHKCGNMSEAFREAGIQPSLLCVRGTSADHCVQLIAAQEADAITLDGGAIYEAGKEHGLKPVVGEVYDQEVGTSYYAVAVVRRSSHVTIDTLKGVKSCHTGINRTVGWNVPVGYLVESGRLSVMGCDVLKAVSDYFGGSCVPGAGETSYSESLCRLCRGDSSGEGVCDKSPLERYYDYSGAFRCLAEGAGDVAFVKHSTVLENTDGKTLPSWGQALLSQDFELLCRDGSRADVTEWRQCHLARVPAHAVVVRADTDGGLIFRLLNEGQRLFSHEGSSFQMFSSEAYGQKDLLFKDSTSELVPIATQTYEAWLGHEYLHAMKGLLCDPNRLPPYLRWCVLSTPEIQKCGDMAVAFRRQRLKPEIQCVSAKSPQHCMERIQAEQVDAVTLSGEDIYTAGKTYGLVPAAGEHYAPEDSSNSYYVVAVVRRDSSHAFTLDELRGKRSCHAGFGSPAGWDVPVGALIQRGFIRPKDCDVLTAVSEFFNASCVPVNNPKNYPSSLCALCVGDEQGRNKCVGNSQERYYGYRGAFRCLVENAGDVAFVRHTTVFDNTNGHNSEPWAAELRSEDYELLCPNGARAEVSQFAACNLAQIPPHAVMVRPDTNIFTVYGLLDKAQDLFGDDHNKNGFKMFDSSNYHGQDLLFKDATVRAVPVGEKTTYRGWLGLDYVAALEGMSSQQC"}}, "key": {"[1]": {"target": "LRP/LRP1B on U-87 cells (human) (UniProt Q07954)", "assay": "U-87 cells incubated with p97 at 4 C, DSS cross-linking, non-reducing SDS-PAGE, immunoblot with anti-LRP alpha-subunit mAb 8G1 (legend of FIG. 29)"}, "[2]": {"target": "LRP/LRP1B on U-87 cells (human) (UniProt Q07954)", "assay": "U-87 cells incubated with p97 at 4 C, DSS cross-linking, non-reducing SDS-PAGE, immunoblot with anti-LRP alpha-subunit mAb 8G1 (FIG. 29)"}}, "note": "No constants are given. Whether binding was seen depends on the method and setting. Some binding calls cover weakened binding; strength is not graded here.", "data": [{"binder": "B1", "values": [{"measurement": "binding", "setting": "[1]", "value": "binds"}, {"measurement": "binding", "setting": "[2]", "value": "binds"}]}]}
